Results as given in PubChem BioAssay AID493014 (National Center for Advancing Translational Sciences (NCATS), 2011).
Hit rate of the full screen: of about 340,000 compounds, about 170 (0.05%) were called active. The shares of active, inactive and inconclusive entries below differ from those in the screen. The call rests on the fitted dose curve; in most records, active means well fitted inhibition curve with a large enough effect in the signal ratio, with a control signal flat (not every such curve was filed as active); inconclusive means small, poorly fitted or top-dose-only effect, or effect the other way, or a change in a side signal; inactive means flat fitted curve, though single readings scatter; the % refers to the signal ratio. A potency beside an inconclusive call is a rough fit, not a confirmed value.

test: qHTS Assay to Find Inhibitors of Chronic Active B-Cell Receptor Signaling; conditions: ABC-DLBCL IkBa-CBG/CBR reporter, luminescence ratio (green luciferase fused to IkBa over red control in TMD8 lymphoma cells), 4 h; activity change, negative = inhibition: at 46.1 µM (top of the series);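 on activity change, negative = inhibition: plate controls were basal doxycycline-induced cells for no effect and cells given 10 µM MG132 for full effect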
How it was run: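 Compounds up to 46 uM were incubated four hours with TMD8 cells whose green CBG68 luciferase is fused to IkappaBalpha; red CBR luminescence normalised the signal, and concentration-effect curves were fitted to fusion, red and ratio data.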
Potency means the concentration at half of the fitted maximal effect.

Structure (SMILES) | Potency | activity change, negative = inhibition
O=C(CSc1nc2ccccc2s1)N/N=C/c1cc([N+](=O)[O-])ccc1O | inconclusive: 11.2 µM [falling, partial curve] | 
O=C(COC(=O)c1cc(Cl)ccc1O)NCCC1=CCCCC1 |  | inactive: 1.9%
COc1ccccc1C(=O)NC(=O)COC(=O)c1ccco1 |  | inconclusive: 14.9%
C=CCn1c(-c2ccc3[nH]c(C)c(C)c3c2)n[nH]c1=S |  | inconclusive: -2.47%
COc1ccc(-c2nc(C)ncc2-c2csc(C)n2)c(O)c1 |  | inconclusive: -15.7%
CCOC(=O)c1sc(NC(=O)c2cc3c(s2)CCC(C)C3)nc1C (configuration not stated) | inconclusive: 2.91 µM [rising, partial curve, poor fit] | 
Cc1c(C(=O)Nc2ccc(N3CCOCC3)cc2)oc2ccccc12 |  | inconclusive: -7.63%
COc1ccccc1N=CC1=C(O)CC(c2ccccc2)CC1=O (configuration not stated) | inconclusive: 6.51 µM [falling, partial curve] | 
Cc1nc(N[C@@H](Cc2ccccc2)C(=O)O)c2oc3ccccc3c2n1 |  | inconclusive: 8.21%
Brc1ccc(CSc2ccc(-c3ccco3)nn2)cc1 |  | inconclusive: 18.7%
Cc1onc(-c2c(F)cccc2Cl)c1C(=O)Nc1sc2c(c1C#N)CCC(C(C)(C)C)C2 (configuration not stated) | inconclusive: 10.3 µM [falling, partial curve] | 
O=c1[nH]c(/C=C/c2ccc(OC(F)F)cc2)nc2c1cnn2-c1ccccc1 |  | inconclusive: 1.8%
O=C(CCSCc1ccccc1Cl)N1CCN(c2cccc(Cl)c2)CC1 |  | inconclusive: 2%
CC(=O)OC(COc1ccccc1)Cn1cnc2cc(C)c(C)cc21 (configuration not stated) |  | inactive: 10.5%
C/C(Cn1nc([N+](=O)[O-])cc1C)=N\NC(=O)c1cccc(Br)c1 | inconclusive: 7.94 µM [falling, partial curve] | 
O=C(NCCSc1ccccn1)c1ccc(Cl)cc1 | inconclusive: 22.4 µM [falling, single point] | 
COC(=O)C1=C(C)N(c2ccc(C)cc2)/C(=C/c2cccs2)C1=O |  | inactive: 11.6%
N#CCc1ccc(NC(=O)CSc2nnc(C3CC3)n2C2CC2)cc1 |  | inconclusive: -0.0693%
COC(=O)c1ccccc1NC(=O)N[C@@H](C)C(=O)OC |  | inconclusive: 12.1%
O=C(Nc1ccncc1)Nc1ccc(F)cc1F | inconclusive: 25.9 µM [falling, partial curve, poor fit] | 
O=C1C=C(NC2=CC3OC(c4ccccc4)OCC3OC2=O)CCC1 (configuration not stated) |  | inconclusive: -10.4%
COc1ccccc1OCC(=O)Nc1ccccc1C(=O)NCc1cccnc1 |  | inconclusive: -18%
Cc1ccc(S(=O)(=O)N(CC(=O)Nc2ccccc2)C(=O)N2CCN(C)CC2)cc1 |  | inconclusive: -6.42%
CC(=O)NC(CC(=O)NC1CCCCCC1)c1ccccc1 (configuration not stated) |  | inconclusive: 6.83%
CN(c1ccccc1)S(=O)(=O)c1cccc(NC(=O)CCNC(=O)c2ccccc2)c1 |  | inactive: 1.13%
O=C(Cn1c(=O)oc2cc(S(=O)(=O)N3CCCC3)ccc21)Nc1ccc(C(F)(F)F)cc1 |  | inactive: 2.3%

Record cards, from the list above.
`CC(=O)OC(COc1ccccc1)Cn1cnc2cc(C)c(C)cc21` (configuration not stated) is entered as activity change, negative = inhibition: inactive: 10.5%
`N#CCc1ccc(NC(=O)CSc2nnc(C3CC3)n2C2CC2)cc1` is entered as activity change, negative = inhibition: inconclusive: -0.0693%

Additional results

Structure (SMILES) | Potency | activity change, negative = inhibition
CCCn1c(NC(=O)C2CCN(S(=O)(=O)c3cccs3)CC2)nc2ccccc21 | inconclusive: 35.5 µM [falling, partial curve, poor fit] | 
COCC(=O)N(c1ccccc1)C(C)C(=O)OC (configuration not stated) |  | inactive: 2.45%
CCCCC#Cc1cncc(C(=O)N/N=C/c2ccccc2)c1 | inconclusive: 12.6 µM [falling, partial curve] | 
CC1CC1C(=O)Nc1nc(-c2ccccc2)cs1 (configuration not stated) | inconclusive: 0.206 µM [rising, full curve] | 
CCOc1ccc(-c2nn(-c3ccccc3)cc2/C=C2\SC(=S)N(C3CCS(=O)(=O)C3)C2=O)cc1 (configuration not stated) |  | inconclusive: -17.7%
Cc1nn(C)c(Cl)c1CN1CCN(CCC(C)C)C(CCO)C1 (configuration not stated) |  | inconclusive: -14.7%
COc1ccc(C2NC(=O)NC(c3ccccc3)=C2c2nc3ccccc3s2)cc1 (configuration not stated) | inconclusive: 14.6 µM [falling, single point] | 
COc1ccc(CCNC(=O)c2cccc(S(=O)(=O)N3CCOCC3)c2)cc1OC |  | inconclusive: 0.964%
O=C(NC1CCCCC1)c1ccc(CS(=O)(=O)Cc2ccccc2F)o1 |  | inconclusive: 20.7%
O=C(O)c1ccc(N=c2oc3cc(O)ccc3cc2C(=O)NCc2ccccc2)cc1 | inconclusive: 31.6 µM [rising, partial curve] | 
COc1cc(OC)cc(C(=O)Nc2ncn[nH]2)c1 |  | inactive: 7.69%
O=C(N/N=C/c1ccccc1O)C1SCCCS1 | inconclusive: 35.5 µM [falling, single point] | 
O=C(Nc1nnc(Cc2ccccc2)s1)c1cnccn1 |  | inconclusive: -9.2%
COC(=O)c1ccc(Cn2cc(/C=C\[N+](=O)[O-])c3ccccc32)o1 |  | inconclusive: -14.1%
COC(=O)c1sccc1NC(=O)CSc1nnnn1-c1ccccc1C | inconclusive: 0.58 µM [falling, full curve] | 
CC(C)c1ccc(OCC(=O)Nc2ccc(OC(F)(F)F)cc2)cc1 |  | inactive: -7.24%
CCOC(=O)c1sc(-c2ccc(C(F)(F)F)cc2)nc1O |  | inconclusive: 14.6%
NC(=O)CSc1nc(-c2ccccc2Cl)ns1 |  | inconclusive: 11.3%
Cn1cnnc1SCc1ccc(C(=O)N/N=C(\CCC(=O)O)c2ccc(C(C)(C)C)cc2)cc1 |  | inactive: -8%
O=C(NC(=S)Nc1cccc(CO)c1)c1ccc(-c2ccccc2)cc1 |  | inconclusive: -18.5%
COc1cc2c(cc1OC)C(c1cc(C)ccc1C)CC(=O)N2 (configuration not stated) | inconclusive: 8.91 µM [falling, partial curve] | 
CC1CCCN(C(=O)c2ccc3c(=O)n(C4CCCC4)c(=S)[nH]c3c2)C1 (configuration not stated) |  | inconclusive: 0.57%
CCCC[C@@H]1CNC(=S)N1CC1CCCCC1 |  | inactive: -1.32%
CC1CN(C(=O)Nc2cccc(C(F)(F)F)c2)CC(C)O1 (configuration not stated) |  | inconclusive: 10%
Cc1cc(NC(=O)c2ccccc2Cl)no1 | inconclusive: 8.91 µM [falling, partial curve] | 
COc1ccc(C(=O)Nc2nc(C)c(C)s2)cc1OC |  | inconclusive: -0.739%
